PubChem BioAssay AID493014 (National Center for Advancing Translational Sciences (NCATS), 2011)
In all, about 340,000 compounds went through this assay and about 170 (0.05%) were called active. All entries are inconclusive by the source's own rule. Clear calls are listed elsewhere. Calls come from the whole dose curve; as a rule, active = well fitted inhibition curve with a large enough effect in the signal ratio, with a control signal flat (not every such curve was filed as active); inconclusive = small, poorly fitted or top-dose-only effect, or effect the other way, or a change in a side signal; inactive = flat fitted curve, though single readings scatter; the % refers to the signal ratio.

assay: qHTS Assay to Find Inhibitors of Chronic Active B-Cell Receptor Signaling; details: ABC-DLBCL IkBa-CBG/CBR reporter, luminescence ratio (green luciferase fused to IkBa over red control in TMD8 lymphoma cells), 4 h
Description: NIH Molecular Libraries Probe Production Network [MLPCN] NIH Chemical Genomics Center [NCGC] MLPCN Grant: 1 R03 DA031086-01A1 PI Name: Dr. R. Eric Davis NCGC Assay Overview: Diffuse large B-cell lymphoma (DLBCL) is the most common category of non-Hodgkin lymphoma, with ~20,000 new cases per year in the United States. DLBCL should be regarded as a collection of different neoplasms. Microarray gene expression analysis has defined two principal types of DLBCL, named for their similarity to normal B cell stages or activation states: a germinal center B-cell (GCB) type, and an activated B-cell (ABC) type. In ABC-DLBCL, a constitutive high-level activity of the NF-kappaB family of transcription factors has been observed (1) and NF-kappaB target genes are more highly expressed in ABC primary tumors than in GCB tumors. Functional studies have shown a constitutive high-level activity of the IkappaB (inhibitor of kappa-B) kinase (IKK) complex. […] Further analysis of DLBCL primary tumors for NF-kappaB target gene expression imply that although CARD11 is required for constitutive IKK activity in all ABC-DLBCL lines, mutations in CARD11 may be the root cause of IKK activation only in lines or tumors with such mutations. In other words, CARD11 mutations may explain NF-kappaB activation in only 10% of ABC-DLBCL cases. […] This process has been termed 'chronic active BCR signaling' (CABS). […] Following the addition of doxycycline to induce expression of the luciferases, the green luminescence in control cultures rises only slowly because the CBG fusion partner IkappaBalpha is targeted by IKK activity for rapid degradation. In contrast, green luminescence rises rapidly in the presence of proteasome inhibitors or IKK inhibitors. The rise in red luminescence of CBR is not affected by proteasome or IKK inhibitors, and serves as normalization for cell number and nonspecific effects. […]
NCGC Assay Protocol Summary: Cells were seeded in 1536-well plates at 5000 cells/4uL in IMDM medium containing 0.5% FBS, w/o phenol red, 1% penicillin/streptomycin. […] The plates were measured on a ViewLux plate reader for green luminescence (540/20 nm filter) and red luminescence (618/8 nm filter). The green and red luminescent signals were corrected for red and green luminescence filter overlap using previously determined filter calibration constants (determined using the procedure outlined in the Promega Technical Manual; REF 4). The %Activity was determined from the ratio of corrected green/red luminescent values. […] Red luminescent %Activity was normalized to the difference between red luminesence in basal cells (0%Activity) and zero luminescence (-100% Activity). […]
Potency is the fitted concentration of half-maximal effect.

SMILES | Potency
COc1ccc(NC2CCN(C(=O)OC(C)(C)C)CC2)cc1 | inconclusive: 11.2 µM
COc1cc(C(=O)NCC2(N(C)C)CCCCC2)ccc1OC(F)F | inconclusive: 0.1 µM
COc1cc(OC)cc(C(=O)NCC2(N3CCOCC3)CCCCC2)c1 | inconclusive: 11.2 µM
COc1ccc(C(=O)NCC2(N3CCOCC3)CCCCC2)cc1OC | inconclusive: 1.12 µM
